Test results taken from patent US20080038256A1 (SEOUL NATIONAL UNIVERSITY INDUSTRY FOUNDATION, published 2008).
Numbering of substitutions follows the chain as printed. These are yes or no findings as the source states them, for the method shown. Some entries that bind do so weakly or less than the wild type.

Chains of the proteins cited; added tags and fusions are not shown. Residues count along the entry.
UniProt P14210, residues 32-728: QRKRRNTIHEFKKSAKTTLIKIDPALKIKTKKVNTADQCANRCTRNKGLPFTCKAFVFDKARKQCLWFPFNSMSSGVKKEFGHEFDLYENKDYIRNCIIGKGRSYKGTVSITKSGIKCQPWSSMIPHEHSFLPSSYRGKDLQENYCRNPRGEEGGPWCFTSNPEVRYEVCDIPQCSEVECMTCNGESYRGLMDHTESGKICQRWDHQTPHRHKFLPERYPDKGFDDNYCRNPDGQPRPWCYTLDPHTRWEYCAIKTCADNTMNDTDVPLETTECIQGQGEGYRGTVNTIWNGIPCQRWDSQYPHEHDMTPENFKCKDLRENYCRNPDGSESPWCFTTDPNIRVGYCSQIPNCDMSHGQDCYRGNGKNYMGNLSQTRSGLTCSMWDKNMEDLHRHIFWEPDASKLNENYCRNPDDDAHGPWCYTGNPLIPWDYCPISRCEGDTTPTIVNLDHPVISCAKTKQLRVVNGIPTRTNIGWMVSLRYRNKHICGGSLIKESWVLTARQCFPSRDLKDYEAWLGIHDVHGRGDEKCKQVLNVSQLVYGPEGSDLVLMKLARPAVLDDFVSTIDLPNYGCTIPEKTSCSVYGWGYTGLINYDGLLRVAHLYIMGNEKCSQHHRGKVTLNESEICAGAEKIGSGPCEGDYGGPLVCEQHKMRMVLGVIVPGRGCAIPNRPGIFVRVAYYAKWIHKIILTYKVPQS

Columns and labels:
[1] = biological target: HGF/SF (hepatocyte growth factor/scatter factor) (UniProt P14210); experiment: competition ELISA: HGF/SF coated on the plate, cMET/Fc chimera as the blocked ligand mixed with the varied Fab, bound cMET/Fc detected with HRP anti-human Fc, Abs. at 450 nm, triplicates
[2] = biological target: HGF/SF (hepatocyte growth factor/scatter factor) (UniProt P14210); experiment: SPR (BIAcore), HGF/SF immobilized
[3] = biological target: HGF/SF (hepatocyte growth factor/scatter factor) (UniProt P14210); experiment: phage ELISA, HGF/SF coated, anti-M13 HRP detection
[4] = biological target: HGF/SF (hepatocyte growth factor/scatter factor) (UniProt P14210); experiment: affinity examination of the HSFN 68 clones on HGF/SF; method not named in this paragraph

Measured: binding

B1: HSFN 68-13 Fab (Fab, V domains shown)
VH: QQQLVESGGGVVRPGGSLRLSCAASGFTFSTYYMSWVRQAPGKGLEWIGYIGTSSGTTYYANSVKGRFTISSDNAKNSVYLQMNSLRPEDTAVYYCARGLGRINLWGPGTLVTVSS
VL: ELQMTQSPSSLSASVGDRVTITCRASQSISTWLAWYQQKPGKAPKLLIYKASTLESGVPLRFSGGGSGTDFTLTISSLQSEDFATYFCQQSYSLPPTFGQGTKVEVKR
notes: also called anti-HGF/SF Fab humanized antibody
binds: [1] | [2] | [3]

B2: HSFN 68-16 Fab (Fab, V domains shown)
VH: B1 VH with V11L, R13Q, V37I, K76Q, P108Q
VL: ELVMTQSPSTLSASVGDRVTITCRASQSISSWLAWYQQKPGKAPKLLIYKASTLESGVSSRFSGGGSGTEFTLTISSLQPDDFATYYCQQYSRYSGGTFGQGTKVEIRR
notes: Fab with human Ckappa and human CH1, expressed from pComb3X in E. coli HB2151
binds: [4] | [2] | [3]

B3: HSFN 68-27 Fab (Fab, V domains shown)
VH: B1 VH with Q2V, V11L, R13K, L18R, K76Q, P108Q
VL: ELQMTQSPSTLSASVGDRVTITCRASQSISSRLAWYQQKPGKAPKLLIYRASTLEGGVPSRFSGSGSGTEFTLTISGLQPDDFATYYCQQYSTFSPTFGQGTQVDIKR
notes: as for B2
binds: [4] | [2] | [3]

B4: HSFN 68-41 Fab (Fab, V domains shown)
VH: B1 VH with V11L, R13Q, I48V, P108Q
VL: B2 VL with V3Q, T10S, L11V, T22S, S28D, S30R, W32L, S59P, G65S, S77N
notes: as for B2
binds: [4] | [2] | [3]
